This assay deals with Fc tagged recombinant human c-Met (human) (UniProt P08581). Description: SPR; Biacore T-100, CM5 chip coated with 4000 RU protein A/G by amine coupling; Fc tagged c-Met loaded (350 RU) on flow cell 2, IgG-Fc (100 RU) on reference flow cell 1; HGF injected 60 s at 10 ul/min; HBS-P (10 mM HEPES pH 7.4, 150 mM NaCl, 0.05% P-20); reference-subtracted signal; both purified.

Protein sequences, listed by entry. Tags and fused reporters are not part of them. Residues count along the entry.
UniProt P08581, residues 25-932: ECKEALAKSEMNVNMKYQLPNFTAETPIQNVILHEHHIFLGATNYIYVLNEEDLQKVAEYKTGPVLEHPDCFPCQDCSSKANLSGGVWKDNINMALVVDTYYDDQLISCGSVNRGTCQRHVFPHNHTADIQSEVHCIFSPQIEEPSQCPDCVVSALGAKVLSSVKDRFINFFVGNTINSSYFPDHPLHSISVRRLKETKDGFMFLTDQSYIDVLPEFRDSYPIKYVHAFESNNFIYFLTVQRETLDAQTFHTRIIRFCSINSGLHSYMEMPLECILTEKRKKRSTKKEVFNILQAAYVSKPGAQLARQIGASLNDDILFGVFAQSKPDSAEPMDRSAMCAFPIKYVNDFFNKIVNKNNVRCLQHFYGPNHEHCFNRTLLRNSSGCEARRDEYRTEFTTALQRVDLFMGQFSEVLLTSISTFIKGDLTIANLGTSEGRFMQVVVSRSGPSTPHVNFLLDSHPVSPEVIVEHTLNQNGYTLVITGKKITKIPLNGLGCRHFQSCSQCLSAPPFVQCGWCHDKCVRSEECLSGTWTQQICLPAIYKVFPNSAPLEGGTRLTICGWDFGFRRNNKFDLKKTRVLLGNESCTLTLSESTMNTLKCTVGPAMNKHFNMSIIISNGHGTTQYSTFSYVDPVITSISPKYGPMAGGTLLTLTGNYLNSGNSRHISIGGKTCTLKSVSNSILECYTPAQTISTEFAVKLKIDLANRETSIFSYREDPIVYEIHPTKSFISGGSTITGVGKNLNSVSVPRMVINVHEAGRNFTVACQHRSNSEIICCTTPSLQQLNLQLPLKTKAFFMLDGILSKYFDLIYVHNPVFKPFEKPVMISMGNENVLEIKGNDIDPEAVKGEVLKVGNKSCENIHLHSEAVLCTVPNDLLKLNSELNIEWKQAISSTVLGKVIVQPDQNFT
UniProt P14210, residues 32-728: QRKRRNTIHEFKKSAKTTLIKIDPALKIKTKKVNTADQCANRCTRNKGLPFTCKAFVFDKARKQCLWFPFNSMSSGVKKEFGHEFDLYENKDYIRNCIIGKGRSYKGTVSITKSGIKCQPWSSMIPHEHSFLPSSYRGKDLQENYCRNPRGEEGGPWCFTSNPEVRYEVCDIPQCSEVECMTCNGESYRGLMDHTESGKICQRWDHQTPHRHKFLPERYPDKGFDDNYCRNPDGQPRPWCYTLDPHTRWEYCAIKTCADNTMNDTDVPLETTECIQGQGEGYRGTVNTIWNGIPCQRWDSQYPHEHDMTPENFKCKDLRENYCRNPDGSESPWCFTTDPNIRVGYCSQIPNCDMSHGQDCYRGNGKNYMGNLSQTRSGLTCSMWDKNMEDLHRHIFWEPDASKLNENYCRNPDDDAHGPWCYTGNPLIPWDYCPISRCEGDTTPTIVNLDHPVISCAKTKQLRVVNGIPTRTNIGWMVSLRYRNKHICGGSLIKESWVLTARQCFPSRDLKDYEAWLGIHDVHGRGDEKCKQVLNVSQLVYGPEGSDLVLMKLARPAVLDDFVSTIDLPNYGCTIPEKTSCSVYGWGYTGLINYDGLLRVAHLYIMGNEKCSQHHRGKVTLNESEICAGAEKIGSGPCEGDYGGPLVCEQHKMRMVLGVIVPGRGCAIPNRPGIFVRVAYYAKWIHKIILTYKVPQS

Results are given in words; binding and its absence hold for the method and conditions named. Some results given as binding are weak or reduced against the parent protein; the word gives no strength.

As to “Hepatocyte Growth Factor (from UniProt P14210 32-728) (ligand)”, the binding result is “binds”.

The record behind these values is article PMC3418296.
